Experimental data from paper PMC11926231.
These are yes or no findings as the source states them, for the method shown. For some assays here: In cells and extracts the contact can be indirect. Some binding calls cover weakened binding; strength is not graded here. For some assays here: Tags and fused reporters may be left off the sequences shown.

Chains of the proteins cited; added tags and fusions are not shown.
UniProt P0DMV8: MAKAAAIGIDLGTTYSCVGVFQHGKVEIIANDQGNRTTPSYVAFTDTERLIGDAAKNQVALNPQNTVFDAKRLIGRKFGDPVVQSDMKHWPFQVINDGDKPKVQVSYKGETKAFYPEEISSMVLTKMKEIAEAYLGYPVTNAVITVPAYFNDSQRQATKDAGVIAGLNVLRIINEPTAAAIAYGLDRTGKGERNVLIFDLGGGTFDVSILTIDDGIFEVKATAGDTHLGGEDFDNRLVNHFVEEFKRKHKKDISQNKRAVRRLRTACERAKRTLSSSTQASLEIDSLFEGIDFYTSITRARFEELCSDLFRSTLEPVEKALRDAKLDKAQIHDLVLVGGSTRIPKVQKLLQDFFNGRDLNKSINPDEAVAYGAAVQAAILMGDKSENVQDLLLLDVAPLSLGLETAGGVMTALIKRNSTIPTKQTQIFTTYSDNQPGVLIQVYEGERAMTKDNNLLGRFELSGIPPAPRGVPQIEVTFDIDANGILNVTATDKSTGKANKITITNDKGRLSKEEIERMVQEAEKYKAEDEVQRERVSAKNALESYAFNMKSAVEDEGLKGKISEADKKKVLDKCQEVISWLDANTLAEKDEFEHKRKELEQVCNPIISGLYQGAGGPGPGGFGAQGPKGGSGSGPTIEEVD

T1: Flag-Mut-PER2^ΔPAS2 (human) (UniProt O15055)
T1 sequence: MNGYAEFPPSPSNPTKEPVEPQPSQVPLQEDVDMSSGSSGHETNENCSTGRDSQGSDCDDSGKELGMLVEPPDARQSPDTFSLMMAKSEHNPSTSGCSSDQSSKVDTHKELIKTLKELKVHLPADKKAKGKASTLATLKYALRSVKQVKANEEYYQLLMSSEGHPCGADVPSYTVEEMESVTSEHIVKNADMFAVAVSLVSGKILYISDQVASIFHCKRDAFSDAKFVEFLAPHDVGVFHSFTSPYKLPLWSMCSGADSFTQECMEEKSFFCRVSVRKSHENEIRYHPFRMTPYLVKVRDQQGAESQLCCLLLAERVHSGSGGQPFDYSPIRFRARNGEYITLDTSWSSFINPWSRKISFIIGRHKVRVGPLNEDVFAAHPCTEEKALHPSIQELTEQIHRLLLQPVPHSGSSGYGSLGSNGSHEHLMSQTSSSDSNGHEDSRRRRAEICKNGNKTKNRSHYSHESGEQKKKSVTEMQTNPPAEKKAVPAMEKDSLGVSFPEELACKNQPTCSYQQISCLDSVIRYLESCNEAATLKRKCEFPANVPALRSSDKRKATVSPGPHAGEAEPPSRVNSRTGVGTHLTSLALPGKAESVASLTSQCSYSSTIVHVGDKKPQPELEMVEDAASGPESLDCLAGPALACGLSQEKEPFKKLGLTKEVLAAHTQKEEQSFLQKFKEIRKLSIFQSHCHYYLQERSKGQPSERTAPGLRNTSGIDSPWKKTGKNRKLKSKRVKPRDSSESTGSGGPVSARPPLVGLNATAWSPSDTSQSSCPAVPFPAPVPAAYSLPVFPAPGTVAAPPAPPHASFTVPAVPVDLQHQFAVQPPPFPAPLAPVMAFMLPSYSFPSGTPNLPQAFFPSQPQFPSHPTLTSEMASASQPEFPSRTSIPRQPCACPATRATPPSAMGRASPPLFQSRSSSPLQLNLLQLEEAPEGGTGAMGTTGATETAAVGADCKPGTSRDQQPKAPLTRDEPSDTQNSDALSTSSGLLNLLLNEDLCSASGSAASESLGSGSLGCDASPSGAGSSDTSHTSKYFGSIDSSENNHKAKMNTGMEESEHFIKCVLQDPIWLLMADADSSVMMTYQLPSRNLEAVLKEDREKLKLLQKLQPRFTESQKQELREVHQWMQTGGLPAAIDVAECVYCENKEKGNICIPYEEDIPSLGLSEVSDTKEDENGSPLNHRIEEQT

T2: Flag-Mut-PER2^ΔPAS1 (human) (UniProt O15055)
T2 sequence: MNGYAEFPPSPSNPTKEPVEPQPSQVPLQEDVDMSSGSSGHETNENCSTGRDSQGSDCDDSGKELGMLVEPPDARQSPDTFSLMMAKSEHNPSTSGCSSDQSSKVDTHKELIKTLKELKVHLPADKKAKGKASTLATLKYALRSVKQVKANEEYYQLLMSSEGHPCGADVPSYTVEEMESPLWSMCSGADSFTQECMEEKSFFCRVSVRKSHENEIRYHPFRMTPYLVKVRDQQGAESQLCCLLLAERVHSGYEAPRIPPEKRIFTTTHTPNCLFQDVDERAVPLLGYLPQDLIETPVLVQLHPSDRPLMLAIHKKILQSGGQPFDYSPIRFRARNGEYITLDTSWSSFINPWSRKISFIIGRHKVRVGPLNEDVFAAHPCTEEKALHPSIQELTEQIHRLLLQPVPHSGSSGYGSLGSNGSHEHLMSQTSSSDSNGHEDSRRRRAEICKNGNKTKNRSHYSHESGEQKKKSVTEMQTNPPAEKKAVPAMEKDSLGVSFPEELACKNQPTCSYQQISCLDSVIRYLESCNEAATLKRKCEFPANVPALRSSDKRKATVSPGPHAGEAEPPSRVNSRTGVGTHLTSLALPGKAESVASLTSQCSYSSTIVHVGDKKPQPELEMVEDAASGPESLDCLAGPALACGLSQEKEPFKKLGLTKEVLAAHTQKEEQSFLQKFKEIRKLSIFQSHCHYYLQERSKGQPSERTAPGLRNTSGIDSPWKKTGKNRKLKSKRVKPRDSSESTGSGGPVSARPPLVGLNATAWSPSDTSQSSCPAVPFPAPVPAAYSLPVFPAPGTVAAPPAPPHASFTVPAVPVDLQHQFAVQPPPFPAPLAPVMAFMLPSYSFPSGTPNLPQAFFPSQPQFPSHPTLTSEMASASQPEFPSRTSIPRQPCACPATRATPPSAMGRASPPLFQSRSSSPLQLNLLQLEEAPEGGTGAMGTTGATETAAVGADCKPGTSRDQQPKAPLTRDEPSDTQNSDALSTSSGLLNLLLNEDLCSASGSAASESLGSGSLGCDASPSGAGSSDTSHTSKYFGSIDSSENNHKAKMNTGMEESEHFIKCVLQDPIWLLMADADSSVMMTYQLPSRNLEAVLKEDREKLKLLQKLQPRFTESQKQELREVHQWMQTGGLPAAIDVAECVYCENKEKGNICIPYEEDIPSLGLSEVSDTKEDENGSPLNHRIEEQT

T3: PER2 overexpressed from the OE-PER2 lentivirus (human) (UniProt O15055)
T3 sequence: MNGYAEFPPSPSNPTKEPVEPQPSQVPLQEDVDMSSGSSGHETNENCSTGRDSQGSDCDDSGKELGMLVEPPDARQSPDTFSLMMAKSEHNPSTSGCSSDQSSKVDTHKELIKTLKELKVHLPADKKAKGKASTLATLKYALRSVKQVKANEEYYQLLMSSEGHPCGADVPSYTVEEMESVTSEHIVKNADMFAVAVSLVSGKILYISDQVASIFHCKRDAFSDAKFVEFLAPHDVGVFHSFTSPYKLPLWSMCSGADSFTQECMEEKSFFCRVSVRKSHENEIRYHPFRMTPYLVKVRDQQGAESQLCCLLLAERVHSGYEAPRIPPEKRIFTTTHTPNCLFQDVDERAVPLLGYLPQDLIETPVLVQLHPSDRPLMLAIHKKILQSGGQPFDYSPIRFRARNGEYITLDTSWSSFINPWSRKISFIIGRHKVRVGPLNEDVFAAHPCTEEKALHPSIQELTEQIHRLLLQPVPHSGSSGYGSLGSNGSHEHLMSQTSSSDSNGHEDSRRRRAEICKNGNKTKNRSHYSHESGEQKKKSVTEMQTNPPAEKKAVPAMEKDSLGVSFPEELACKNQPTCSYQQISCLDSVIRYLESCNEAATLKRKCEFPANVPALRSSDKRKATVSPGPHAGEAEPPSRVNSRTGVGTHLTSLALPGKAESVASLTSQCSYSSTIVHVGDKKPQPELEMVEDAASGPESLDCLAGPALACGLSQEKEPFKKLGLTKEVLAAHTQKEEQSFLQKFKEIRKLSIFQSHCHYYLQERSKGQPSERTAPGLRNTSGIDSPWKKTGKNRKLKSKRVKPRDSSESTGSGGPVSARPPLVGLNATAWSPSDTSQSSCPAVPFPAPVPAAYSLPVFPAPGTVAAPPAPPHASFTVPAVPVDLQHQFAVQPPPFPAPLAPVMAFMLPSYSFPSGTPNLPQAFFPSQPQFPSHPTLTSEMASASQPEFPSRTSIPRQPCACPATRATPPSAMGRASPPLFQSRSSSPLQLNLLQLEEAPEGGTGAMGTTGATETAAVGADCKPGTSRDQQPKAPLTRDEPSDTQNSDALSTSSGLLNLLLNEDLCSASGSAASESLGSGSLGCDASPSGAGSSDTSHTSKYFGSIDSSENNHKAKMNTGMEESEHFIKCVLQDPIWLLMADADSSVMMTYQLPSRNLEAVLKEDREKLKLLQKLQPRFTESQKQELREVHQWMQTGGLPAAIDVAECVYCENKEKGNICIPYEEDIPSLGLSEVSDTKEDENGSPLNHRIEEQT

T4: Period2 (PER2) in SCC25 and 293 T cells (human) (UniProt O15055)
T4 sequence: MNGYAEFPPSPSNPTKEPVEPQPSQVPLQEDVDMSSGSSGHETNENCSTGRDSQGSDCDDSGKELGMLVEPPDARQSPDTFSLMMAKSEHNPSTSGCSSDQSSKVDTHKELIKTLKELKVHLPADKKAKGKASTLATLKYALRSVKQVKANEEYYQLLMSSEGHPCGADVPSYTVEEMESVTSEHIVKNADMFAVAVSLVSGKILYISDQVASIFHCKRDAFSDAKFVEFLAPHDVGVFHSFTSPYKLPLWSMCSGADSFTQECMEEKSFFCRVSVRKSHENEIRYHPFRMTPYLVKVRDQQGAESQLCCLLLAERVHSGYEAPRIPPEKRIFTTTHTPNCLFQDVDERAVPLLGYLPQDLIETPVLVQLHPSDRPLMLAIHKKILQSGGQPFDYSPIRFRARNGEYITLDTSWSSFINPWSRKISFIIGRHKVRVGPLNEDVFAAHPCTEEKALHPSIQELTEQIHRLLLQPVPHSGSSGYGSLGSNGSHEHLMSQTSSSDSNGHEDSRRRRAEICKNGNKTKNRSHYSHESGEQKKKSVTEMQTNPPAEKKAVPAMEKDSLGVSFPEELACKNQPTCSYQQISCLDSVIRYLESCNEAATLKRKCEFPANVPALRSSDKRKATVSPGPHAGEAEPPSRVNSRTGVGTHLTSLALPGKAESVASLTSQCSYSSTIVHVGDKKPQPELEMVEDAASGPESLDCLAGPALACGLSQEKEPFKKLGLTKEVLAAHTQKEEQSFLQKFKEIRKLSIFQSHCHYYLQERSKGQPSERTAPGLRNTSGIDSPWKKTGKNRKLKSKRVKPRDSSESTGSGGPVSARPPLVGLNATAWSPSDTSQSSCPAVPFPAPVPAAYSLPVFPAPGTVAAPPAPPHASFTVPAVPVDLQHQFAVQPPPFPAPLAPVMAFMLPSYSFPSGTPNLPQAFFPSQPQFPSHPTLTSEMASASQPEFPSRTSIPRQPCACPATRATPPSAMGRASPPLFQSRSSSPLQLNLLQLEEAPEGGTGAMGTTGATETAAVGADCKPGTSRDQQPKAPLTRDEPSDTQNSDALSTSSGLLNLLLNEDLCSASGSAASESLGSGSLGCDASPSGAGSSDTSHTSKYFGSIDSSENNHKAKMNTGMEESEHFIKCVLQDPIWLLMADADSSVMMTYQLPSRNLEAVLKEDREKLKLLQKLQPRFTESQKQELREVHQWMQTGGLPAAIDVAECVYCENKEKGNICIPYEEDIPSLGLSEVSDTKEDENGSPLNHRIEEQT


Assays:
[1] = target: T1, Flag-Mut-PER2^ΔPAS2 (human); assay: co-IP; SCC25 cells transfected with Flag-tagged PER2 deletion mutants (ΔPAS1, ΔPAS2, ΔCT); antibody overnight at 4 °C, Protein A/G magnetic beads, western blot for HSP70 and AKT
[2] = target: T2, Flag-Mut-PER2^ΔPAS1 (human); assay: as above
[3] = target: T3, PER2 overexpressed from the OE-PER2 lentivirus (human); assay: co-IP; Vector-SCC25, OE-PER2-SCC25 and Mut-PER2^ΔCT-SCC25 cell lysates compared; antibody overnight at 4 °C, Protein A/G magnetic beads, western blot
[4] = target: T4, Period2 (PER2) in SCC25 and 293 T cells (human); assay: co-IP; SCC25 and 293 T cell lysates; PER2, HSP70, AKT or IgG antibody (1 µg) overnight at 4 °C, Protein A/G magnetic beads, western blot
[5] = target: DLAT (human (endogenous in TSCCA, SCC25 and CAL27)) (UniProt P10515); assay: native gel or EMSA; cell or tumour homogenates lysed in NP40 buffer; 30 µg on native-PAGE, blot with DLAT antibody; cells with PER2 or ATF3 overexpressed or silenced, SC79, TTM, ATF3 inducer 1 or ES

Row | binding [1] | binding [2] | binding [3] | binding [4] | binding [5] | Molecule
1 | binds | binds | binds | binds | – | heat shock protein 70 (HSP70) in SCC25 and 293 T cells (from UniProt P0DMV8 1-641)
2 | – | – | – | – | binds | DLAT (protein, UniProt P10515 87-647) SLPPHQKVPLPSLSPTMQAGTIARWEKKEGDKINEGDLIAEVETDKATVGFESLEECYMAKILVAEGTRDVPIGAIICITVGKPEDIEAFKNYTLDSSAAPTPQAAPAPTPAATASPPTPSAQAPGSSYPPHMQVLLPALSPTMTMGTVQRWEKKVGEKLSEGDLLAEIETDKATIGFEVQEEGYLAKILVPEGTRDVPLGTPLCIIVEKEADISAFADYRPTEVTDLKPQVPPPTPPPVAAVPPTPQPLAPTPSAPCPATPAGPKGRVFVSPLAKKLAVEKGIDLTQVKGTGPDGRITKKDIDSFVPSKVAPAPAAVVPPTGPGMAPVPTGVFTDIPISNIRRVIAQRLMQSKQTIPHYYLSIDVNMGEVLLVRKELNKILEGRSKISVNDFIIKASALACLKVPEANSSWMDTVIRQNHVVDVSVAVSTPAGLITPIVFNAHIKGVETIANDVVSLATKAREGKLQPHEFQGGTFTISNLGMFGIKNFSAIINPPQACILAIGASEDKLVPADNEKGFDVASMMSVTLSCDHRVVDGAVGAQWLAEFRKYLEKPITMLL
